Record: PubChem BioAssay AID686943 (Drosophila RNAi Screening Center, 2013)
The deposit covers about 23,000 reagents; below is an unselected part of those with a known target gene and a result. 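Extra replicates exist only for a retested subset of genes; insulin dose and duration not given; both raised and lowered dpERK matter.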 Names joined by + are all predicted targets of the reagent. Not all columns of the deposit are shown. No sequences are given here. Not given: the amount of reagent, the time to read-out.

- Assay: 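Fly genes whose loss alters ERK activation after insulin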 (primary screen)
- System: Drosophila S2R+ haemocyte-like cells expressing YFP-tagged ERK (Rolled)
- Knock-down reagent: long dsRNA against Drosophila genes
- Treatment: insulin stimulation versus unstimulated cells; dose and duration not given
- Measured: 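Antibody staining for doubly phosphorylated ERK divided by ERK-YFP signal, as plate z-scores, in insulin-treated and untreated cells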
- Reading the numbers: replicate 1, z-score of dpERK with insulin and replicate 2, z-score of dpERK with insulin: higher = more active ERK per ERK-YFP after insulin

Pxt (GeneID 42131) [DRSC17040] | replicate 1, z-score of dpERK with insulin: 1.2; replicate 2, z-score of dpERK with insulin: -1.15
mdy (GeneID 44887) [DRSC01559] | replicate 1, z-score of dpERK with insulin: 1; replicate 2, z-score of dpERK with insulin: -0.42
mdy (GeneID 44887) [DRSC02250] | replicate 1, z-score of dpERK with insulin: 1.24; replicate 2, z-score of dpERK with insulin: 0.43
Prosalpha1R + Prosalpha1 [DRSC07515] | replicate 1, z-score of dpERK with insulin: -2.09; replicate 2, z-score of dpERK with insulin: -3.65
a (GeneID 43852) [DRSC04667] | replicate 1, z-score of dpERK with insulin: -0.34; replicate 2, z-score of dpERK with insulin: -0.09
a (GeneID 43852) [DRSC04668] | replicate 1, z-score of dpERK with insulin: 0.35; replicate 2, z-score of dpERK with insulin: 0.1
CG32532 (GeneID 32943) [DRSC19556] | replicate 1, z-score of dpERK with insulin: 0.22; replicate 2, z-score of dpERK with insulin: 0.9
CG32532 (GeneID 32943) [DRSC19557] | replicate 1, z-score of dpERK with insulin: 0.66; replicate 2, z-score of dpERK with insulin: -0.06
CG32532 (GeneID 32943) [DRSC19558] | replicate 1, z-score of dpERK with insulin: 0.7; replicate 2, z-score of dpERK with insulin: -0.13
CG32532 (GeneID 32943) [DRSC21370] | replicate 1, z-score of dpERK with insulin: 0.89; replicate 2, z-score of dpERK with insulin: 0.83
CG16879 (retired record) (GeneID 34827) [DRSC01918] | replicate 1, z-score of dpERK with insulin: 0.91; replicate 2, z-score of dpERK with insulin: 0.11
CG16879 (retired record) (GeneID 34827) [DRSC22849] | replicate 1, z-score of dpERK with insulin: 0.06; replicate 2, z-score of dpERK with insulin: 0.03
SCAP (GeneID 35529) [DRSC04869] | replicate 1, z-score of dpERK with insulin: 0.27; replicate 2, z-score of dpERK with insulin: -1.1
SCAP (GeneID 35529) [DRSC04907] | replicate 1, z-score of dpERK with insulin: 1.91; replicate 2, z-score of dpERK with insulin: 0.84
Ir21a + asRNA:CR43609 [DRSC00528] | replicate 1, z-score of dpERK with insulin: -0.34; replicate 2, z-score of dpERK with insulin: -0.7

4 of these entries, reformatted:
| target gene | amplicon | replicate 1, z-score of dpERK with insulin | replicate 2, z-score of dpERK with insulin |
| --- | --- | --- | --- |
| CG32532 (GeneID 32943) | DRSC21370 | 0.89 | 0.83 |
| CG16879 (retired record) (GeneID 34827) | DRSC01918 | 0.91 | 0.11 |
| CG16879 (retired record) (GeneID 34827) | DRSC22849 | 0.06 | 0.03 |
| SCAP (GeneID 35529) | DRSC04869 | 0.27 | -1.1 |

The results go on:
MED21 (GeneID 3354977) [DRSC20932] | replicate 1, z-score of dpERK with insulin: 0.63; replicate 2, z-score of dpERK with insulin: 0.73
Src64B (GeneID 48973) [DRSC08700] | replicate 1, z-score of dpERK with insulin: 0.23; replicate 2, z-score of dpERK with insulin: -0.51
CG11655 (GeneID 32472) [DRSC19413] | replicate 1, z-score of dpERK with insulin: -0.72; replicate 2, z-score of dpERK with insulin: -0.14
CG13151 (GeneID 36374) [DRSC06276] | replicate 1, z-score of dpERK with insulin: 0.38; replicate 2, z-score of dpERK with insulin: 0.27
MED19 (GeneID 39987) [DRSC10516] | replicate 1, z-score of dpERK with insulin: 2.36; replicate 2, z-score of dpERK with insulin: 2.91
Vha100-1 (GeneID 43442) [DRSC14148] | replicate 1, z-score of dpERK with insulin: 1.38; replicate 2, z-score of dpERK with insulin: -0.46
CG14113 (GeneID 50287) [DRSC10116] | replicate 1, z-score of dpERK with insulin: -0.14; replicate 2, z-score of dpERK with insulin: 0.41
DIP1 (GeneID 43981) [DRSC20818] | replicate 1, z-score of dpERK with insulin: 0.61; replicate 2, z-score of dpERK with insulin: 0.48
dup (GeneID 47121) [DRSC07088] | replicate 1, z-score of dpERK with insulin: -4.6; replicate 2, z-score of dpERK with insulin: -3.21
CG34210 (GeneID 5740490) [DRSC04579] | replicate 1, z-score of dpERK with insulin: 0.43; replicate 2, z-score of dpERK with insulin: 0
qtc (GeneID 33739) [DRSC02364] | replicate 1, z-score of dpERK with insulin: -0.59; replicate 2, z-score of dpERK with insulin: 0
qtc (GeneID 33739) [DRSC02365] | replicate 1, z-score of dpERK with insulin: -0.27; replicate 2, z-score of dpERK with insulin: -0.34
14-3-3zeta (GeneID 36059) [DRSC05028] | replicate 1, z-score of dpERK with insulin: -1.02; replicate 2, z-score of dpERK with insulin: -1.25
Cpr23B (GeneID 33480) [DRSC00555] | replicate 1, z-score of dpERK with insulin: 0.72; replicate 2, z-score of dpERK with insulin: 2.18
CG32814 (GeneID 318223) [DRSC17670] | replicate 1, z-score of dpERK with insulin: 0.25; replicate 2, z-score of dpERK with insulin: 0.16
agt (GeneID 40816) [DRSC12611] | replicate 1, z-score of dpERK with insulin: 0.01; replicate 2, z-score of dpERK with insulin: 0.27
